Earlier results in patent US20100016430A1, “MODIFIED COCONUT OILS WITH BROAD ANTIMICROBIAL SPECTRUM” (MALAYSIAN AGRICULTERAL RESEARCH AND DEVELOPMENT IN, priority 2005, published 2010).
Some of these results come from one statement about several compounds together.

System: C. trachomatis
Conditions: Bergsson et al. 1998

Compound	Reduction in the infectivity titer
CCCCCCCCCC(=O)O [capric acid]	greater than 10,000 fold
CCCCCCCCCCCC(=O)O [lauric acid]	greater than 10,000 fold
